Library screening results

Sequences of proteins named here, by UniProt entry; tags and fusion partners are left off.
UniProt E9BF75, entry or part of it: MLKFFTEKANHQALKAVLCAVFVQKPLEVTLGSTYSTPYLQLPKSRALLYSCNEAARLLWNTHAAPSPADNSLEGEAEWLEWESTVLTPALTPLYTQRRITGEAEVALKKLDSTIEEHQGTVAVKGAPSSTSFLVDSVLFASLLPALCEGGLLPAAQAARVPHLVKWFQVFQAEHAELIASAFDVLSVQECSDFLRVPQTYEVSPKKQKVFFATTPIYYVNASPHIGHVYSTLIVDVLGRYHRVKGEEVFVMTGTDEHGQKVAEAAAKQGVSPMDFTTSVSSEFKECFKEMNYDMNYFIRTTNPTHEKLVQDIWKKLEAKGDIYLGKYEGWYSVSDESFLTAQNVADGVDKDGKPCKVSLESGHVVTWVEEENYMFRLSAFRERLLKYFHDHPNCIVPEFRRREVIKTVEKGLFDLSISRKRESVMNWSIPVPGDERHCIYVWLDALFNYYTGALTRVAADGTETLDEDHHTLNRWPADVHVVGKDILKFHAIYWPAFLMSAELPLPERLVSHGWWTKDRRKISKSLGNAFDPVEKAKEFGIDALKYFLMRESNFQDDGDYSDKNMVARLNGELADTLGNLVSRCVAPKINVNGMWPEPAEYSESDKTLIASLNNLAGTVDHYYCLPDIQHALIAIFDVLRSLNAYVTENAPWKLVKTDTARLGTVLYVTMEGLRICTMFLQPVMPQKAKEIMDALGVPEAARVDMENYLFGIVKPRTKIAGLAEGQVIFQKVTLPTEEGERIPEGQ

All values are in %. The controls that fix the scale are not given in the record; negative values are as filed. This is an unselected part of the compounds tested.

LdMetRS: 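Methionyl-tRNA synthetase (putative), Leishmania donovani (UniProt E9BF75). Primary screen of methionyl-tRNA synthetase; the read-out is not stated. The test concentration is not given. The values are filed as inhibition. Of about 68,000 compounds tested this way, about 24 (0.035%) reached 50% or more in at least one test.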
Mtb heat-shock: 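Assay on Mycobacterium tuberculosis, filed only as a heat shock assay from Cornell; the read-out is not stated. The concentration is filed as 10 mM, unlikely as a test dose, so the dose is not known. Higher reads as stronger inhibition (inferred: compounds with an IC50 in retests scored well above the rest). Of about 69,000 compounds tested this way, about 930 (1.4%) reached 50% or more in at least one test.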

Compound: CN(C)CCN(C)S(=O)(=O)Cc1ccc(Br)cc1
LdMetRS: 4.57
Mtb heat-shock: -61.99

Compound: CC[C@H]1COCCN1C(=O)CCCn1nnc(-c2ccc(F)cc2)n1
LdMetRS: 6.69
Mtb heat-shock: 8.225

Compound: CSCCN1CCN(c2nc(N)ncc2C)CC1
LdMetRS: 4.02
Mtb heat-shock: -18.07

Compound: COCC(=O)N[C@H]1C[C@@H](C(=O)NCCc2cccc(Cl)c2)N(C)C1
LdMetRS: 13.8
Mtb heat-shock: 14.16

Compound: CCc1cc(CNC(=O)NCC(c2ccco2)N2CCCC2)[nH]n1 (stereo not drawn)
LdMetRS: 7.829
Mtb heat-shock: 3.885

Compound: CCN(C)c1ncnc2c1CCN(C(=O)NCc1cccnc1)CC2
LdMetRS: 2.74

Compound: CC(C)(C)CNC(=O)c1ccc(C(=O)O)cc1
LdMetRS: -5.263
Mtb heat-shock: 18.22

Compound: Nc1cc(C(=O)N2CCC3(CC2)Nc2ccccc2NC3=O)ccn1
LdMetRS: 5.351
Mtb heat-shock: -11.53

Compound: O=C(O)C(F)(F)F.O=C(O)C(F)(F)F.O=C(O)C(F)(F)F.[H][C@]12CCN(c3ncc(F)cn3)C[C@@]1([H])OCCN(Cc1ccncc1)C2
Mtb heat-shock: 2.073

Compound: CCN1CCCC1CN(CCN(C)C)S(=O)(=O)c1ccc(C#N)cc1 (stereo not drawn)
LdMetRS: 10.34
Mtb heat-shock: 10.72

Compound: Cc1cc(=O)[nH]c(SC(C)C(=O)N2CCC(NS(C)(=O)=O)CC2)n1 (stereo not drawn)
LdMetRS: 14.78
Mtb heat-shock: 4.207

Compound: CCOCCCC(=O)N1CCN(C(=O)Cc2cccc(OC)c2)CC1
LdMetRS: 10.86
Mtb heat-shock: 4.897

Compound: COC(=O)CCC(=O)N1CCC2(CN(Cc3cccc(Cl)c3)C2)C1
LdMetRS: 7.143
Mtb heat-shock: 7.57

Compound: Cc1nc(C)n(C2CCCN(C(=O)c3cncnc3C)C2)n1 (stereo not drawn)
LdMetRS: 14.21
Mtb heat-shock: 22.54

Compound: COc1ccc(CN2CCCC2)cc1Oc1ccc2c(c1)CC(CN)O2 (stereo not drawn)
LdMetRS: 12.06
Mtb heat-shock: -22.14

Compound: CSc1nnc(CC2CCN(C(=O)Cc3ccncc3)CC2)n1C
LdMetRS: 13.9
Mtb heat-shock: 13.16

Compound: CNC(=O)C(C)(C)N1CCC[C@H]1C(=O)NCC(C)C
LdMetRS: 3.297

Compound: Cc1ccc(S(=O)(=O)Nc2ccc(=O)n(C)c2)c(Br)c1
LdMetRS: 14.53
Mtb heat-shock: -21.21

Compound: O=C(O)c1ccccc1-n1cnc(CN2CCc3ccccc3C2)c1
LdMetRS: 1.596
Mtb heat-shock: -14.57

Compound: Cn1ncc2c(NCC(=O)N3CCNCC3)nc(C(C)(C)C)nc21
LdMetRS: 16.67
Mtb heat-shock: 5.715

Compound: CC(CN(C)C(=O)c1cn(C)nc1-c1ccc(F)cc1F)C(=O)O (stereo not drawn)
LdMetRS: 1.872
Mtb heat-shock: 4.363

Compound: CC(C)(CCS(C)(=O)=O)CNC(=O)NC1CCCC1(C)C (stereo not drawn)
LdMetRS: 13.4
Mtb heat-shock: -4.925

Compound: Cc1ccc(N2CC3(COCCN(Cc4nccs4)C3)OCC2=O)s1.O=C(O)C(F)(F)F (stereo not drawn)
Mtb heat-shock: -9.75

Compound: CN(Cc1ccc2nonc2c1)C(=O)c1ccc(C2CCCO2)s1 (stereo not drawn)
LdMetRS: 20.77
Mtb heat-shock: 6.126

Compound: CO[C@H]1CC[C@H]2[C@H]1OCCN2Cc1ccc(F)cc1
LdMetRS: -4.11

Compound: COc1ccc(C)cc1CN1CCN(Cc2nccn2C)CC1
LdMetRS: 12.71
Mtb heat-shock: 1.633

Compound: COc1ccc(Br)cc1CCC(=O)N1CCSCC1
LdMetRS: 8.871
Mtb heat-shock: 13.02

Compound: COc1ccc(C)cc1CSCCn1nc2ccccn2c1=O
LdMetRS: 7.639
Mtb heat-shock: 9.519

Compound: Cc1cc(C(=O)N2C[C@H]3CC[C@@H]2CN(Cc2ccccn2)C3)nc(C)n1
LdMetRS: 17.01

The first 2 entries again:

- CN(C)CCN(C)S(=O)(=O)Cc1ccc(Br)cc1 | LdMetRS: 4.57%; Mtb heat-shock: -61.99%
- CC[C@H]1COCCN1C(=O)CCCn1nnc(-c2ccc(F)cc2)n1 | LdMetRS: 6.69%; Mtb heat-shock: 8.225%

From ChEMBL document CHEMBL3988442, “University of Dundee, Small-Polar-MMV Screening Library” (2021).